From publication doi:10.1101/521369

Target: T1, eGFP-PLCβ1 (UniProt P10687)
T1 sequence: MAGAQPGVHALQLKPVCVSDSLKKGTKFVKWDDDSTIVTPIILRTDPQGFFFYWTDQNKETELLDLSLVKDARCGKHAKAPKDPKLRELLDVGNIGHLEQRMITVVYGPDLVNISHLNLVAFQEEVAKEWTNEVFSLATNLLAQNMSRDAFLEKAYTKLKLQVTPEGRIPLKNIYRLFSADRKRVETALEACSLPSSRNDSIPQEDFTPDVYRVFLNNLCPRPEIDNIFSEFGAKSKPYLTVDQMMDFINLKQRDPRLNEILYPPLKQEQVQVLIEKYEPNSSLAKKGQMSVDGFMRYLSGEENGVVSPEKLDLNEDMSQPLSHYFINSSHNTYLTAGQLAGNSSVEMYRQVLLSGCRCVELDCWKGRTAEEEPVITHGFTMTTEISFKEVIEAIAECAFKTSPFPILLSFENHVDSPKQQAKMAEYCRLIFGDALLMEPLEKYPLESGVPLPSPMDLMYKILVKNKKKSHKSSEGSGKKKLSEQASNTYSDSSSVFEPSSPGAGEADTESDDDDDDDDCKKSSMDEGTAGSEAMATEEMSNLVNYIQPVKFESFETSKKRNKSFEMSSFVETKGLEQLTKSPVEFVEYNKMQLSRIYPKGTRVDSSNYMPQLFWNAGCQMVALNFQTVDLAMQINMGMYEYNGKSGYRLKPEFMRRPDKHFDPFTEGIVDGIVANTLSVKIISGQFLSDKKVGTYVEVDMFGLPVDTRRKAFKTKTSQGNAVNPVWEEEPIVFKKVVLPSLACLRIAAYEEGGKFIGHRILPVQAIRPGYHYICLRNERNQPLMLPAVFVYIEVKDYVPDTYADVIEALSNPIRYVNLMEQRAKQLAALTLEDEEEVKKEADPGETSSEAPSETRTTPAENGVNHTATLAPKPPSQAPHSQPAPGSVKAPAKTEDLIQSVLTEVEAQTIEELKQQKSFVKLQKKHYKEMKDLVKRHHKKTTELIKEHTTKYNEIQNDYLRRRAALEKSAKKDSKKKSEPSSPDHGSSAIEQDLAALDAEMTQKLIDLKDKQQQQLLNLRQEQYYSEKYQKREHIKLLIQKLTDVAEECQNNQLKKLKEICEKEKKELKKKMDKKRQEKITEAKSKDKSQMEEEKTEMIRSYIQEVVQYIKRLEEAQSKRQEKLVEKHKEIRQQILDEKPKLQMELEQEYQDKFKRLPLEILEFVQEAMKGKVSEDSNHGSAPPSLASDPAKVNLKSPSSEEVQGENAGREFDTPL
Assay: co-IP

Substance: IQGAP2, endogenous (rat (endogenous in PC12))
- binding: no binding

No constants are given. Whether binding was seen depends on the method and setting. In cells and extracts the contact can be indirect. Sequences can lack the tags named with a protein.
